# Experimental data: the supplement of paper PMC8728848
# The other results are listed elsewhere or left out.
# Tests used:
# Test in all cases: glycan array binding signal (z-score within array); higher = stronger binding
# Conditions in all cases: glycan notation: IUPAC condensed, linker removed
# [1] = molecular target: Neu5Ac(a2-6)GlcNAc(b1-4)GlcNAc(b1-4)GlcNAc
# Method in brief: (§1)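 Glycan array data came from 3228 arrays in the Consortium for Functional Glycomics database, and only arrays with an available protein sequence were kept. Glycan names were put into IUPAC-condensed notation, and columns mapping to the same glycan were averaged. The binding signal is a within-array Z-score, averaged across arrays of one protein sequence run at different concentrations or buffers and across linkers. A negative Z-score can be read as non-binding.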
# [2] = molecular target: Neu5Ac(a2-8)Neu5Ac
# Method in brief: as §1
# [3] = molecular target: Neu5Ac(a2-8)Neu5Ac(a2-3)Gal(b1-3)GalNAc(b1-4)[Neu5Ac(a2-3)]Gal(b1-4)Glc
# Method in brief: as §1
# [4] = molecular target: Neu5Ac(a2-8)Neu5Ac(a2-3)Gal(b1-3)GalNAc(b1-4)[Neu5Ac(a2-8)Neu5Ac(a2-3)]Gal(b1-4)Glc
# Method in brief: as §1
# [5] = molecular target: Neu5Ac(a2-8)Neu5Ac(a2-3)Gal(b1-4)Glc
# Method in brief: as §1
# [6] = molecular target: Neu5Ac(a2-8)Neu5Ac(a2-3)Gal(b1-4)GlcNAc
# Method in brief: as §1
# [7] = molecular target: Neu5Ac(a2-8)Neu5Ac(a2-3)[Gal(b1-3)GalNAc(b1-4)]Gal(b1-4)Glc
# Method in brief: as §1
# [8] = molecular target: Neu5Ac(a2-8)Neu5Ac(a2-3)[GalNAc(b1-4)]Gal(b1-4)Glc
# Method in brief: as §1
# [9] = molecular target: Neu5Ac(a2-8)Neu5Ac(a2-8)Neu5Ac
# Method in brief: as §1
# [10] = molecular target: Neu5Ac(a2-8)Neu5Ac(a2-8)Neu5Ac(a2-3)Gal(b1-4)Glc
# Method in brief: as §1
# [11] = molecular target: Neu5Ac(a2-8)Neu5Ac(a2-8)Neu5Ac(a2-3)[Gal(b1-3)GalNAc(b1-4)]Gal(b1-4)Glc
# Method in brief: as §1
# [12] = molecular target: Neu5Ac(a2-8)Neu5Ac(a2-8)Neu5Ac(a2-3)[GalNAc(b1-4)]Gal(b1-4)Glc
# Method in brief: as §1
# [13] = molecular target: Neu5Ac(a2-8)Neu5Ac(a2-8)Neu5Ac(a2-8)Neu5Ac(a2-3)[GalNAc(b1-4)]Gal(b1-4)Glc
# Method in brief: as §1
# [14] = molecular target: Neu5Ac(a2-8)Neu5Gc(a2-3)Gal(b1-4)GlcNAc
# Method in brief: as §1
# [15] = molecular target: Neu5Ac(b2-6)Gal(b1-4)GlcNAc
# Method in brief: as §1
# [16] = molecular target: Neu5Ac(b2-6)GalNAc
# Method in brief: as §1
# [17] = molecular target: Neu5Ac9Ac(a2-3)Gal(b1-3)GlcNAc
# Method in brief: as §1
# [18] = molecular target: Neu5Ac9Ac(a2-3)Gal(b1-4)GlcNAc
# Method in brief: as §1
# [19] = molecular target: Neu5Ac9Ac(a2-6)Gal(b1-4)GlcNAc
# Method in brief: as §1
# [20] = molecular target: Neu5Gc(a2-3)Gal(b1-3)GlcNAc
# Method in brief: as §1
# [21] = molecular target: Neu5Gc(a2-3)Gal(b1-3)[Fuc(a1-4)]GlcNAc
# Method in brief: as §1
# [22] = molecular target: Neu5Gc(a2-3)Gal(b1-4)Glc
# Method in brief: as §1
# [23] = molecular target: Neu5Gc(a2-3)Gal(b1-4)GlcNAc
# Method in brief: as §1
# [24] = molecular target: Neu5Gc(a2-3)Gal(b1-4)GlcNAc(b1-3)Gal(b1-4)GlcNAc(b1-2)Man(a1-3)[Neu5Gc(a2-3)Gal(b1-4)GlcNAc(b1-3)Gal(b1-4)GlcNAc(b1-2)Man(a1-6)]Man(b1-4)GlcNAc(b1-4)GlcNAc
# Method in brief: as §1
# [25] = molecular target: Neu5Gc(a2-3)Gal(b1-4)[Fuc(a1-3)]GlcNAc
# Method in brief: as §1
# [26] = molecular target: Neu5Gc(a2-6)Gal(b1-4)GlcNAc
# Method in brief: as §1
# [27] = molecular target: Neu5Gc(a2-6)GalNAc
# Method in brief: as §1
# [28] = molecular target: Neu5Gc(a2-8)Neu5Ac(a2-3)Gal(b1-4)GlcNAc
# Method in brief: as §1
# [29] = molecular target: Neu5Gc(a2-8)Neu5Gc(a2-3)Gal(b1-4)GlcNAc
# Method in brief: as §1
# [30] = molecular target: Neu5Gc(a2-8)Neu5Gc(a2-3)Gal(b1-4)GlcNAc(b1-3)Gal(b1-4)GlcNAc
# Method in brief: as §1
# [31] = molecular target: Neu5Gc(a2-8)Neu5Gc(a2-6)Gal(b1-4)GlcNAc
# Method in brief: as §1
# [32] = molecular target: Neu5Gc(b2-6)Gal(b1-4)GlcNAc
# Method in brief: as §1
binder,measurement,setting,value
Epa11 (Candida glabrata) (protein) MGSSHHHHHHSSGLVPRGSHMASSNAPNYPVGCSPSVGTQLTPGLSLEVYAYPMDGNNGYCWNATYKDPEFPRSGYLKNKLLGKADGVVGPLNFLAKNKDCSPKVDTLPAGFNFPQPITVTNFTMVLFGYLAPKQSGKYTFKLLADDLLLLNLGATNAFDCCNREATKNNLGEFLAYNLWPNQDKNVTVYLEKGVYYPLRLFFNNRDGGSQLDFSYYFNDSPAPLTDFSGMFFSVPDGAECPARI,glycan array binding signal (z-score),[1],-0.053
same,glycan array binding signal (z-score),[2],-0.002
same,glycan array binding signal (z-score),[3],0.184
same,glycan array binding signal (z-score),[4],-0.127
same,glycan array binding signal (z-score),[5],-0.615
same,glycan array binding signal (z-score),[6],-0.677
same,glycan array binding signal (z-score),[7],0.019
same,glycan array binding signal (z-score),[8],0.267
same,glycan array binding signal (z-score),[9],-0.255
same,glycan array binding signal (z-score),[10],-0.019
same,glycan array binding signal (z-score),[11],-0.155
same,glycan array binding signal (z-score),[12],1.3
same,glycan array binding signal (z-score),[13],-0.224
same,glycan array binding signal (z-score),[14],-0.419
same,glycan array binding signal (z-score),[15],0.947
same,glycan array binding signal (z-score),[16],-0.375
same,glycan array binding signal (z-score),[17],-0.333
same,glycan array binding signal (z-score),[18],-0.173
same,glycan array binding signal (z-score),[19],-0.587
same,glycan array binding signal (z-score),[20],0.029
same,glycan array binding signal (z-score),[21],0.146
same,glycan array binding signal (z-score),[22],0.849
same,glycan array binding signal (z-score),[23],-0.644
same,glycan array binding signal (z-score),[24],-0.587
same,glycan array binding signal (z-score),[25],-0.055
same,glycan array binding signal (z-score),[26],-0.264
same,glycan array binding signal (z-score),[27],-0.604
same,glycan array binding signal (z-score),[28],0.168
same,glycan array binding signal (z-score),[29],0.024
same,glycan array binding signal (z-score),[30],-0.015
same,glycan array binding signal (z-score),[31],-0.614
same,glycan array binding signal (z-score),[32],-0.169

# Looked up one by one from the list above, 2 records:
binder,measurement,setting,value
Epa11 (Candida glabrata) (protein) MGSSHHHHHHSSGLVPRGSHMASSNAPNYPVGCSPSVGTQLTPGLSLEVYAYPMDGNNGYCWNATYKDPEFPRSGYLKNKLLGKADGVVGPLNFLAKNKDCSPKVDTLPAGFNFPQPITVTNFTMVLFGYLAPKQSGKYTFKLLADDLLLLNLGATNAFDCCNREATKNNLGEFLAYNLWPNQDKNVTVYLEKGVYYPLRLFFNNRDGGSQLDFSYYFNDSPAPLTDFSGMFFSVPDGAECPARI,glycan array binding signal (z-score),[15],0.947
same,glycan array binding signal (z-score),[21],0.146
